1 substance from paper PMC4660199 can be followed below.

Results are given in words; binding and its absence hold for the method and conditions named.

For the experiment, the target named is cpSRP43 CD3 (UniProt O22265). The experiment in a line: NMR solution structure; solution structure of unliganded CD3, 298 K, 20 mM Na-phosphate (pH 6.5), 150 mM NaCl; set against the helix-swapped crystal form; both purified.

As to “cpSRP43 CD3 (from UniProt O22265 316-373) (domain or fragment)”, the binding result is “no binding”.
